Reference: PubChem BioAssay AID2810 (NMMLSC, 2010)
The list shows a part of the results. Shown are side measurements of this screen, not its main read-out; they come without a call.

Assay: modulators of CD8 T cell-vesicle binding, confirmation, cherry-picked primary hits, two concentrations (AID 2810);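 further: lower values mean blocking of vesicle binding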;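 on percent response (vesicle binding): ratio of mean FL2 vesicle stain of CD8+ cells to that row's control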
Conditions: 2C CD8+ T cell-vesicle binding, flow cytometry; for double positive events: CD8+/vesicle+ events
[1] = at 15.4 µM, stronger effect = lower value

Row | SMILES | double positive events (at 7.7 µM) | double positive events [1] | percent response (vesicle binding) (at 7.7 µM)
1 | COc1cccc(OC)c1-c1nnc(-c2cn(C)c3ccccc23)o1 | 14.9% | 12.7% | 97.9%
2 | Cc1c(Cl)cccc1NC(=O)COC(=O)CCc1nc2ccccc2n1-c1ccccc1 | 21.4% | 20.6% | 296%
3 | COc1ccc(NC(=O)NC(C)c2ccc3c(c2)OCO3)c(OC)c1 (stereo not drawn) | 16.4% | 30% | 118%
4 | Clc1ccccc1OCc1nc(-c2ccncc2)no1 | 26.5% | 11.9% | 244%
5 | O=C(NNS(=O)(=O)c1ccc2ccccc2c1)c1cccs1 | 18.2% | 8.6% | 151%
6 | CCOC(=O)CNC(=O)CSc1nc2cccnc2n1Cc1ccccc1 | 31% | 14.7% | 210%
7 | CC(=O)c1c(O)c2ccccc2n(Cc2ccccc2)c1=O | 19.4% | 19.1% | 157%
8 | CCOc1ccc(S(=O)(=O)NCCC(=O)NCC(c2ccc(OC)cc2)N2CCCC2)cc1 (stereo not drawn) | 8.3% | 14.7% | 241%
9 | C=CCn1c(SCC(=O)Nc2cc(C)on2)nc2sc3c(c2c1=O)CCCC3 | 7.4% | 11.7% | 136%
10 | c1ccc(COc2ccc(OCCN3CCCCC3)cc2)cc1 | 9.6% | 3.6% | 377%
11 | COc1cccc(N2CCN(CC(=O)Nc3nnc(-c4ccccc4)s3)CC2)c1 | 36.3% | 12.1% | 292%
12 | CSc1ncc(CN2CCCCC2C(=O)Nc2ccc(Oc3ccccc3)nc2)cn1 (stereo not drawn) | 12.4% | 25.9% | 155%
13 | CN1CCN(S(=O)(=O)c2cccc(C(=O)Nc3cc(C(F)(F)F)ccc3N3CCCCC3)c2)CC1 | 9.6% | 29% | 176%
14 | O=C(COC(=O)c1ccccc1Nc1ccc(SC(F)F)cc1)NCc1ccco1 | 30.1% | 21.5% | 246%
15 | CCOC(=O)N1CCC(=NNc2ncc(C(F)(F)F)cc2Cl)CC1 | 25.9% | 13.4% | 205%
16 | COc1ccc(S(=O)(=O)N2CCc3ccccc32)cc1C(=O)NCCc1ccccn1 | 8.3% | 18.6% | 330%
17 | COc1ccc(C2CC(=O)c3cnc(NC(=O)c4cc(OC)cc(OC)c4)nc3C2)cc1 (stereo not drawn) | 11.9% | 30.9% | 269%
18 | COc1ccc(N2CC(C(=O)N[C@@H](C)C(=O)NCc3ccccc3OC)CC2=O)cc1 (stereo partly drawn) | 38.4% | 4.5% | 323%
19 | Cc1c(C(=O)c2no[n+]([O-])c2C(=O)c2cnn(C)c2C)cnn1C | 31.8% | 8.5% | 264%
20 | C/C(CCC(=O)OC[C@H]1O[C@H](C#Cc2ccccc2)C=C[C@@H]1Oc1ccc(C)cc1)=N\OC[C@@H](O)[C@H]1O[C@@H]2OC(C)(C)O[C@@H]2[C@H]1O | 12.9% | 12.7% | 104%
21 | Cc1cccc(NC(=O)CN2C(=O)N/C(=C\c3ccc(N4CCOCC4)cc3)C2=O)c1 | 39.3% | 21.3% | 288%
22 | O=C(CCc1ccccc1)NC1(Cc2ccccc2)CCN(CCCc2ccccc2)C1=O (stereo not drawn) | 32.8% | 7.1% | 253%
23 | O=C(Cc1ccc(Cl)cc1)SCc1ccccc1 | 9.7% | 27.6% | 104%
24 | CCN(CC(=O)NCCc1ccccc1)S(=O)(=O)c1ccccc1 | 28.6% | 15.6% | 234%
25 | Cc1ccccc1C(=O)NCC(=O)N1CCN(C/C=C/c2ccccc2)CC1 | 28.3% | 4.9% | 115%
26 | C=CCN1C(=O)NC2(O)C(=O)c3ccccc3C12O (stereo not drawn) | 8.9% | 12.1% | 203%

Row | SMILES | double positive events (at 7.7 µM) | double positive events [1] | percent response (vesicle binding) (at 7.7 µM)
27 | COc1ccc(N2C(=O)CC(Sc3ncn[nH]3)C2=O)c(OC)c1 (stereo not drawn) | 2.2% | 4.2% | 89.2%
28 | CN(C)S(=O)(=O)c1ccc(C(=O)NCCc2ccco2)cc1 | 24.2% | 5.1% | 197%
29 | COc1ccc(C(C)NC(=O)c2ccccc2Cl)cc1OC (stereo not drawn) | 21.3% | 13.6% | 195%
30 | CC(C)CC1C(C#N)=C(N)Oc2n[nH]c(-c3ccccc3)c21 (stereo not drawn) | 10.6% | 26.4% | 334%
31 | CCCc1cc(=O)oc2cc(OCC(=O)Nc3cc(C)on3)ccc12 | 34.5% | 14.5% | 318%
32 | COc1ccc(C)cc1S(=O)(=O)NNc1nc(C)cc(C)n1 | 39.5% | 6.5% | 630%
33 | O=C(Cc1ccc(Cl)cc1)OCC(=O)N1CCCCCC1 | 9.5% | 25.9% | 131%
34 | COc1ccc(C(=O)N/N=C(\C)Cn2cnc([N+](=O)[O-])n2)cc1 | 48.3% | 9.8% | 357%
35 | COc1ccc(N=c2oc3ccc(OC)cc3cc2-c2nc3ccccc3[nH]2)cc1 | 15.2% | 7.8% | 129%
36 | CC1(C)SC[C@H](C(=O)Nc2cccc(Cl)c2)N1C=O | 22.8% | 39.4% | 311%
37 | S=C(NC1CCCCC1)N1CCc2[nH]c3ccccc3c2C1 | 20.2% | 20.3% | 242%
38 | O=C1OC(Cc2ccccn2)C(O)=C1C1=NCCCN1 (stereo not drawn) | 13.2% | 11.7% | 516%
39 | O=C(C1CCCO1)N1CCN(c2c3c(nc4cc(-c5ccc(F)cc5)nn24)CCC3)CC1 (stereo not drawn) | 24.5% | 15.1% | 174%
40 | O=C(CC12CC3CC(CC(C3)C1)C2)N/N=C/c1ccc([N+](=O)[O-])o1 | 16.6% | 3.3% | 142%
41 | COc1ccc(C(=O)N2CCOC2CNC(=O)C(=O)NCc2ccc(F)cc2)cc1 (stereo not drawn) | 13.9% | 12.2% | 179%
42 | CCCn1c(SCC(=O)NCc2ccc3c(c2)OCO3)n[nH]c1=O | 11% | 17.5% | 421%
43 | CC(=O)c1ccc(N2CCN(S(=O)(=O)c3cc4[nH]c(=O)c(=O)[nH]c4cc3C)CC2)cc1 | 7.8% | 20.8% | 171%
44 | Cn1c(=O)c2cc(S(=O)(=O)NCCC(=O)NC3CCCCCC3)ccc2n(C)c1=O | 12% | 21.1% | 140%
45 | C=CCOC(=O)C1C(=O)CC(C)(O)C(C(=O)OCC=C)C1c1ccc(N(C)C)cc1 (stereo not drawn) | 22.4% | 21% | 232%
46 | CCn1cc(C(=O)N2CCOCC2)c(=O)c2cc(S(=O)(=O)N(C)C3CCCCC3)ccc21 | 11.1% | 15.1% | 199%
47 | O=[N+]([O-])c1ccc(Sc2ccccn2)nc1 | 20.7% | 12.7% | 379%
48 | CC1CCc2c(sc(NC(=O)Cn3nc(C(F)(F)F)c4c3CCCCC4)c2C#N)C1 (stereo not drawn) | 14.7% | 24% | 232%
49 | Cc1cccc(NS(=O)(=O)c2c(C)noc2C)c1 | 8.7% | 6.9% | 139%
50 | CN1CCC(=NNC(=O)c2ccc(N(Cc3ccccc3Cl)S(C)(=O)=O)cc2)CC1 | 14.9% | 26.5% | 167%
51 | CCN(CC)CCNC(=O)c1ccc(NC(=O)c2ccc(C(=O)c3ccccc3)cc2)cc1 | 18.1% | 35.8% | 275%

An excerpt of these results, as a markdown table:

| Row | SMILES | double positive events (at 7.7 µM) | double positive events [1] | percent response (vesicle binding) (at 7.7 µM) |
| --- | --- | --- | --- | --- |
| 1 | COc1cccc(OC)c1-c1nnc(-c2cn(C)c3ccccc23)o1 | 14.9% | 12.7% | 97.9% |
| 2 | Cc1c(Cl)cccc1NC(=O)COC(=O)CCc1nc2ccccc2n1-c1ccccc1 | 21.4% | 20.6% | 296% |
| 3 | COc1ccc(NC(=O)NC(C)c2ccc3c(c2)OCO3)c(OC)c1 (stereo not drawn) | 16.4% | 30% | 118% |
| 4 | Clc1ccccc1OCc1nc(-c2ccncc2)no1 | 26.5% | 11.9% | 244% |
| 5 | O=C(NNS(=O)(=O)c1ccc2ccccc2c1)c1cccs1 | 18.2% | 8.6% | 151% |
| 6 | CCOC(=O)CNC(=O)CSc1nc2cccnc2n1Cc1ccccc1 | 31% | 14.7% | 210% |
| 7 | CC(=O)c1c(O)c2ccccc2n(Cc2ccccc2)c1=O | 19.4% | 19.1% | 157% |
| 8 | CCOc1ccc(S(=O)(=O)NCCC(=O)NCC(c2ccc(OC)cc2)N2CCCC2)cc1 (stereo not drawn) | 8.3% | 14.7% | 241% |
| 9 | C=CCn1c(SCC(=O)Nc2cc(C)on2)nc2sc3c(c2c1=O)CCCC3 | 7.4% | 11.7% | 136% |
| 10 | c1ccc(COc2ccc(OCCN3CCCCC3)cc2)cc1 | 9.6% | 3.6% | 377% |
| 11 | COc1cccc(N2CCN(CC(=O)Nc3nnc(-c4ccccc4)s3)CC2)c1 | 36.3% | 12.1% | 292% |
| 12 | CSc1ncc(CN2CCCCC2C(=O)Nc2ccc(Oc3ccccc3)nc2)cn1 (stereo not drawn) | 12.4% | 25.9% | 155% |
| 13 | CN1CCN(S(=O)(=O)c2cccc(C(=O)Nc3cc(C(F)(F)F)ccc3N3CCCCC3)c2)CC1 | 9.6% | 29% | 176% |
| 14 | O=C(COC(=O)c1ccccc1Nc1ccc(SC(F)F)cc1)NCc1ccco1 | 30.1% | 21.5% | 246% |
